Measured values as given in the supplement of paper PMC7411640.
Counter-ions that a name gives are not always drawn. The list shows a part of the results. Most values lie within the scatter of the assay; repeated measurements hardly agree.

System: MDA-MB-468
Assay: phospho-S6 immunofluorescence (DAPI-normalised), per-plate z-score; higher = higher phospho-S6 signal (less pathway suppression)
Conditions: 24 h
Description: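 GPCR-targeted compound library (MedChemExpress HY-L006) tested on MDA-MB-468 PTEN-null TNBC cells in 384-well plates at 0.1, 1 or 10 uM, combined with vehicle, GDC0941 450 nM or lapatinib 1 uM, for 24 h. Phospho-S6 (S240/244) immunofluorescence normalised to DAPI and expressed as a per-plate z-score; values are the mean of biological triplicates.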

[1] = compound 0.1 µM, co-treatment: GDC0941 450 nM
[2] = compound 0.1 µM, co-treatment: lapatinib 1 uM
[3] = compound 0.1 µM, co-treatment: vehicle
[4] = compound 1 µM, co-treatment: GDC0941 450 nM
[5] = compound 1 µM, co-treatment: lapatinib 1 uM
[6] = compound 1 µM, co-treatment: vehicle
[7] = compound 10 µM, co-treatment: GDC0941 450 nM
[8] = compound 10 µM, co-treatment: lapatinib 1 uM
[9] = compound 10 µM, co-treatment: vehicle

| SMILES | phospho-S6 immunofluorescence (z-score) [1] | phospho-S6 immunofluorescence (z-score) [2] | phospho-S6 immunofluorescence (z-score) [3] | phospho-S6 immunofluorescence (z-score) [4] | phospho-S6 immunofluorescence (z-score) [5] | phospho-S6 immunofluorescence (z-score) [6] | phospho-S6 immunofluorescence (z-score) [7] | phospho-S6 immunofluorescence (z-score) [8] | phospho-S6 immunofluorescence (z-score) [9] |
| --- | --- | --- | --- | --- | --- | --- | --- | --- | --- |
| CN(C)N(C)C(=O)[C@@]1(Cc2ccccc2)CCCN(C(=O)[C@@H](Cc2c[nH]c3ccccc23)NC(=O)C(C)(C)N)C1 [Anamorelin (hydrochloride)] | -1.59 | -0.11 | -0.99 | -0.7 | -0.12 | -1.45 | – | – | – |
| CCC1(c2c[nH]cn2)Cc2ccccc2C1 [Atipamezole] | 0.8 | 0.35 | 1.03 | 0.89 | 0.18 | 0.6 | 0.08 | -0.83 | 0.81 |
| CCCC1O[C@@H]2C[C@H]3[C@@H]4CCC5=CC(=O)C=C[C@]5(C)[C@H]4[C@@H](O)C[C@]3(C)[C@]2(C(=O)CO)O1 (some centres not stated) [Budesonide] | -0.74 | 1.17 | 0.71 | -0.56 | 1.09 | 1.45 | -0.53 | -0.12 | -0.2 |
| CCCCc1nc(Cl)c(CO)n1Cc1ccc(-c2ccccc2-c2nnn[nH]2)cc1 [Losartan (potassium)] | 0.42 | 1.47 | 0.96 | 0.87 | 0.07 | 0.71 | 0.74 | 0.83 | 0.81 |
| COc1cc(NC(=O)CCN2CCC(OC(=O)Nc3ccccc3-c3ccccc3)CC2)c(Cl)cc1CNC[C@H](O)c1ccc(O)c2[nH]c(=O)ccc12 [Batefenterol] | 0.62 | 2.79 | 1.29 | -0.34 | 0.99 | 1.74 | -3.26 | -4.13 | 0.38 |
